Article PMC4863586

B1: ROP4 (protein, UniProt Q5Y808 34-578)
chain: RQRPHQWKSSEAALSVSPAGDIVDKYSRDSTEGENTVSEGEAEGSRGGSWLEQEGVELRSPSQDSQTGTSTASPTGFRRLLRRLRFWRRGSTRGSDDAAEVSRRTRVPLHTRLLQHLRRVARIIRHGVSAAAGRLFGRVRQVEAERPQPVFTEGDPPDLETNSLYYRDKVPGQGIIQEILRQKPGIAHHPESFSVVAADERVSRTLWAEGGVVRVASELGQPGRVLVRGRRIGLFRPGMQFEATDQATGEPMTALVGHTVLEATARDVDSMRNEGLAVGLFQKVKNPYLANRYLRFLAPFDLVTIPGKPLVQKAKSRNEVGWVKNLLFLLPPTHVDMETFVDEIGRFPQEDRPLADAARLYLTVQAVRLVAHLQDEGVVHGKIMPDSFCLKREGGLYLRDFGSLVRAGAKVVVPAEYDEYTPPEGRAAARSRFGSGATTMTYAFDAWTLGSVIFLIWCSRAPDTKSGYEYSVEFFFSRCRRVPENVKLLVYKLINPSVEARLLALQAIETPEYREMEEQLSAASRLYSGDGTLTGGDDDMPPLET
B2: ROP17 (protein, UniProt Q2PAY3 22-608)
chain: LLLRSPTSNDVFGELVASAERAQPLATRLTKRISRLNFNDREDDFWEDHGDASWNNSYTLVNGRTTLGSENRRRPASHSLIERPYYRDGRLSPVLGVQERRGRSVHSYHEEPVSFFDQRAFDEYTFRRRSQLHRQRARAGLRSRIKQNVRRLWTSARGAVRGWGRRVRRKIGDLFVGHLMPQLRRLRFWDQGLPPVVPPLIGNEPGQASVALVAERMEARLREKTLTEKNPTEAQQAVGTYLINSAENTWFISIPGGRYILLKKRGFLGGGGFGLVYHVEHPTTGQPFALKIFVQRVMNNEVGDKISDLIEDEFGVMKYFPPEWTPARMYSELRFMVPLLKLRVLGKPEFQDARNHLRIFSVCALFPKAQGDLEEAAALLADMDRTNAYNMRMSSTIQMVKLLARFHAFGLVHGDVKLQNFLVDKSGLLLLSDFTQILRTNERRYPPVVTVLYMSPEIATCLITRLRNAIPYTAEIDSWMLGISLYRLWCGDFPFGITLDATALQVAGIVIRSSASSLDFASCHDIPEQFREMIVGFLRKTPGVRLSPQQALEQFSLLNWKGPSPASDTASESEPVSTEEAALLQKE

Target: ROP54 with C-terminal 2×Strep 3×Flag epitope tag (ROP54SFII) (Toxoplasma gondii (type II, Pru∆ku80))
Test: affinity purification with mass spectrometry; ROP54SFII parasite lysate (0.5% NP-40, 150 mM NaCl, protease inhibitors) on Strep-Tactin beads 4 h at room temperature, eluted with 10 mM desthiobiotin; the remainder of the eluate analysed by mass spectrometry

| Binder | binding |
| --- | --- |
| B1 | no binding |
| B2 | no binding |

Results are given in words; binding and its absence hold for the method and conditions named. In cells and extracts the contact can be indirect. Here binding means that the protein was enriched with, or labelled near, the bait; the list need not be complete. A no says only that the protein was not detected with the bait.
